Test results as given in the supplement of paper PMC3334620.
In all, about 33,000 sequences were measured (“E-score (-0.5 to 0.5)”: median about -0.0014, highest 2% from about 0.25 on). The list shows a part of the results.

Target: T1, Cad1 (UniProt P24813)
T1 sequence: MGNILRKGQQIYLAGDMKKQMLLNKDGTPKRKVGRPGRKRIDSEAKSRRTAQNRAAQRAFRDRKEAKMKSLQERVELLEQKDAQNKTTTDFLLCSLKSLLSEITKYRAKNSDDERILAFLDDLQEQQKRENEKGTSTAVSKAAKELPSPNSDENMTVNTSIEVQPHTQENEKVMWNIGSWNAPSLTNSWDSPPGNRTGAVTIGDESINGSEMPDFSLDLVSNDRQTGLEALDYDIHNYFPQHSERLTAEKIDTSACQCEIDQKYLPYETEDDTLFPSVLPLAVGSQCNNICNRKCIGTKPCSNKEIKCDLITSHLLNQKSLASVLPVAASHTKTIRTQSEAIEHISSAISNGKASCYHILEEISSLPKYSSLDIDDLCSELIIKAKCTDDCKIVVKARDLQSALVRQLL
Test: PBM E-score (8-mer binding enrichment) (E-score (-0.5 to 0.5)); higher = stronger / more preferred TF binding
Settings: protein concentration: 100 nM; construct: GST-full length
Method in brief: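 Using PURExpress in vitro transcription/translation, GST-tagged yeast transcription factors were made in full-length or DNA-binding-domain form. These were applied at about 100-200 nM to double-stranded universal all-10-mer Agilent arrays, and bound protein was detected with fluorescent anti-GST. Scans were normalised with masliner before the Universal PBM Analysis Suite assigned E-scores to ungapped eight-base words pooled with their reverse complements.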

| Sequence | PBM E-score |
| --- | --- |
| ACGTTCAT | -0.0396 |
| AAGTCACA | -0.0461 |
| CAAACGCC | -0.0333 |
| CAGACGAC | -0.148 |
| ACGTTAGA | 0.0379 |
| CCCAACAG | -0.0812 |
| GTCACGAC | 0.0662 |
| ATAACCAC | 0.002 |
| ATTGGAGC | 0.187 |
| AAATCAGT | -0.00821 |
| CGCCGTTA | -0.0315 |
| GGAATGAC | -0.179 |
| GGTTCCCA | -0.137 |
| CCTCCACA | 0.0108 |
| CAAGTTGC | 0.0548 |
| GAACAGGA | -0.125 |
| ATGTCTAA | 0.0799 |
| AGTGATAC | 0.0976 |
| AGTACCTC | -0.046 |
| GTTTAACA | 0.00608 |
| GTGCCTTA | -0.0832 |
| CACTGAGC | -0.0366 |
| GTGAGAAC | -0.0529 |
| AGCAACCC | -0.118 |
| ATTAATTC | 0.304 |

| Sequence | PBM E-score |
| --- | --- |
| AGGGATCA | -0.0797 |
| CCCTCAAA | -0.148 |
| GTAAAGAC | 0.0424 |
| AACGGGGT | -0.13 |
| AAAGGACA | -0.0819 |
| CGGAAACC | -0.0235 |
| ACAAATGC | 0.255 |
| AGAAAACA | 0.219 |
| TAGCCGCA | -0.215 |
| GTCATGGA | -0.17 |
| GACGGTAA | 0.0171 |
| AGACGTCG | -0.0866 |
| CACCTATA | -0.124 |
| ATCGGCCG | -0.0628 |
| CTCCAATA | 0.142 |
| CAATTAGG | 0.0689 |
| ACAAAGGA | 0.0401 |
| ATGATTAA | 0.32 |
| TCACACGA | 0.123 |
| ACAGACTG | -0.00999 |
| ACATTCGT | 0.0444 |
| AGTATCGG | 0.0469 |
| GAAGCGAA | 0.00791 |
| TACACTGA | 0.0229 |
| GCCCTGAC | -0.0335 |

| Sequence | PBM E-score |
| --- | --- |
| AGAACGTC | -0.00781 |
| GATTCTCA | 0.0146 |
| AACGAGAT | 0.0437 |
| AGGCCCTC | -0.145 |
| CCAAGTAC | -0.172 |
| AGGCATCG | -0.0505 |
| ACCTGCGC | 0.0231 |
| AGGGACGC | -0.036 |
| GAACGTAA | 0.225 |
| CCCTAACA | 0.142 |
| AAGCTGTC | -0.0288 |
| GAGTCTGC | -0.0992 |
| GTACTGGA | -0.0318 |
| ACGTTGGA | -0.0111 |
| AGTCCCGC | -0.261 |
| CAGCCTTC | -0.132 |
| AACAGATT | -0.0147 |
| CGGGTTTC | 0.179 |
| AAGCCGTG | 0.0294 |
| AGGCCTAC | 0.178 |
| ATATCCTG | -0.0172 |
| CGGTTAAC | -0.12 |
| CGGTATAA | 0.0204 |
| TCCCAGCA | -0.0358 |
| CATTGTGG | -0.118 |

4 records picked at random from the list so far:

| Sequence | PBM E-score |
| --- | --- |
| ACCTGCGC | 0.0231 |
| GAACGTAA | 0.225 |
| AGAACGTC | -0.00781 |
| GAGTCTGC | -0.0992 |

(continued)

| Sequence | PBM E-score |
| --- | --- |
| ATTCATTA | 0.0884 |
| CATCGTTA | -0.0394 |
| GACCTCAC | -0.0522 |
| AGACTGGC | -0.0939 |
| CTGTTGCA | 0.152 |
| GCTATCTA | -0.0769 |
| ACCTCTTC | -0.0368 |
| AAAACGCC | 0.139 |
| GAGGGCCA | -0.149 |
| CGTTAAGC | 0.107 |
| GGCTTACC | -0.0175 |
| CTTCACTC | 0.0104 |
| AAAACACT | -0.0464 |
| CCACCCCA | -0.122 |
| CGGACGCA | 0.0152 |
| ATATTACG | 0.24 |
| CGCCTGAG | 0.00605 |
| GAAATAAA | 0.0915 |
| ACACACCT | 0.167 |
| CGACCGCG | 0.168 |
| AATGGTAA | 0.195 |
| CAAACTGA | 0.0338 |
| CATAAGTA | -0.174 |
| ACTATGAT | 0.0444 |
| ACATTAGC | 0.0121 |

| Sequence | PBM E-score |
| --- | --- |
| CATTAGAA | 0.11 |
| ACTTACTC | -0.00858 |
| ATGGGACA | -0.0588 |
| GCACGGCC | 0.0311 |
| ACCACGAG | 0.0195 |
| AGCTTGTC | -0.0309 |
| AATGATCG | -0.151 |
| ATTTATAG | -0.0336 |
| CGCCTCGC | -0.112 |
| CGCCCGTA | -0.182 |
| AATTAAGA | 0.104 |
| ACTAAAAA | 0.107 |
| GCCTTTTA | -0.116 |
| GATCTTCA | 0.0512 |
| CAATGACA | 0.0686 |
| CTACAGCA | 0.0454 |
| GAGACCAA | 0.0177 |
| ACTAGTAC | 0.0653 |
| ACTCCCAA | -0.0495 |
| CTCGAAAG | -0.0303 |
| CTAGACAG | 0.0439 |
| CGTTCTAG | 0.0132 |
| CCCTAATA | 0.08 |
| GCTGTTGA | 0.215 |
| GCATTCAA | 0.0687 |

| Sequence | PBM E-score |
| --- | --- |
| GAGACATA | 0.039 |
| CGATCACA | 0.204 |
| ACGATGAG | 0.0487 |
| GTGTGCAA | 0.0461 |
| TGCTAACA | 0.043 |
| CGTTTCAA | 0.0179 |
| ATTGGATA | 0.0589 |
| GTAGACCA | -0.176 |
| AATATCGT | 0.272 |
| ACTGGGTA | -0.105 |
| AAATTTCA | 0.113 |
| ACCTGGCA | -0.0272 |
| ATCTTATG | 0.0315 |
| CGGGAGGA | -0.0897 |
| AGGGCAGG | -0.139 |
| AGAATACA | 0.0745 |
| GATGGCGA | 0.0628 |
| AATTGAGA | 0.164 |
| CCGATTAC | 0.0359 |
| GAGGCCAA | 0.0162 |
| CAGGACAG | 0.0794 |
| ATCAAATC | 0.0979 |
| AAGAAACA | 0.127 |
| TACCACTA | -0.0282 |
| GGGCACCC | -0.35 |

| Sequence | PBM E-score |
| --- | --- |
| ACCAGTAT | 0.0915 |
| CTGGTGCC | -0.168 |
| AAATAACT | 0.237 |
| CATTAAGG | -0.0137 |
| AGCTATGG | -0.0808 |
| CGACACCG | -0.0522 |
| ATACCATA | 0.27 |
| ACGCCCGT | 0.0733 |
| CGTTGAGC | 0.082 |
| TGGACGAA | 0.0609 |
| CCCTGGTA | -0.171 |
| GTCGACGA | 0.15 |
| ACGGCGAA | 0.145 |
| ATCTGTAC | 0.0684 |
| CATGAAAC | 0.103 |
| TACGTCCA | -0.0217 |
| GGAGTGGA | -0.0778 |
| GAAAGGCA | -0.0708 |
| CAACCTAA | 0.0817 |
| AACGAGCG | 0.167 |
| AAGTCGCG | 0.0917 |
| ATTCTGCG | 0.0803 |
| AATCTGGC | -0.102 |
| GATGCTCA | -0.111 |
| TCGGTTCA | -0.0954 |

| Sequence | PBM E-score |
| --- | --- |
| CACCTATC | 0.0313 |
| CTACCGGA | -0.155 |
| GGACAGTA | 0.146 |
| CACCTGAA | 0.103 |
| CTGCTTTA | 0.161 |
| ACAGTAAT | 0.217 |
| TAAAATAA | 0.164 |
| CGGACTTC | -0.171 |
| GCTCGACC | -0.0593 |
| ACAGCCCC | -0.121 |
| ATGATAGA | 0.0739 |
| CCTACAAG | -0.227 |
| GAGAGATA | 0.039 |
| CGACTCTA | -0.142 |
| CCCTGACC | -0.0493 |
| CACCACAG | 0.0919 |
| ACCAAACA | 0.13 |
| ACGCGATG | 0.051 |
| CCAGAAGA | -0.206 |
| CCTTTCAA | -0.105 |
| GCGCAGAC | 0.104 |
| AAGGCTTC | -0.147 |
| CTCCCGAC | -0.183 |
| CGGTTCAG | -0.104 |
| GGGTGAGA | -0.248 |

| Sequence | PBM E-score |
| --- | --- |
| CAGAAATG | 0.0237 |
| CTAGCGTC | -0.126 |
| ACTGTATA | 0.122 |
| ATGAACGG | -0.0252 |
| AGTGATCG | 0.0171 |
| CAAAGAAC | 0.0597 |
| ACCTCAAC | 0.055 |
| CCATCAGA | -0.114 |
| GTATAGAA | 0.0196 |
| CTGACGTA | 0.0659 |
| CTCGGTGA | -0.057 |
| AGGATCAC | 0.00581 |
| CCCTCAAG | -0.238 |
| ATCACCTG | -0.141 |
| GACCCAAA | -0.0187 |
| CGCCACCC | -0.116 |
| GGCAAGAC | -0.0601 |
| TAAGTGAA | 0.0211 |
| ATGCACTA | -0.0535 |

Copied from the list:
In PBM E-score, CTAGCGTC has the entry -0.126
In PBM E-score, CGCCACCC has the entry -0.116
In PBM E-score, GTATAGAA has the entry 0.0196
